Measurements from “University of Dundee, Small-Polar-MMV Screening Library” (2021), ChEMBL document CHEMBL3988442.

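Whole-cell assay for inhibitors of Mycobacterium tuberculosis growth, labelled Cornell in the record; the read-out is not stated. The concentration is filed as 10 mM, unlikely as a test dose, so the dose is not known. Higher means stronger inhibition (inferred from two other growth screens of the library). Size under these conditions: about 53,000 compounds, about 900 of them at 50% or above in at least one test.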

The filed quantity is “Percent Effect” (%).
The record does not define 0% and 100%; most values in the screen are far below 50% and negative numbers occur (in some assays of this library far below -100).
The compounds are a random part of those screened.

| # | compound | percent effect |
|---|---|---|
| 1 | `CCC1(C)Cc2ccccc2-c2nc(NCCO)nc(O)c21` (centres unmarked) | 26.16% |
| 2 | `CN1C(=O)CCc2cc(NC(=O)C3CC3)ccc21` | -28.98% |
| 3 | `FC(F)(F)Oc1cccc(CNC[C@H]2Cn3ccnc3CO2)c1` | 23.77% |
| 4 | `[H][C@@]12CN(S(C)(=O)=O)C[C@]1(C(=O)NC)CCC21CCN(C(C)=O)CC1` | 7.392% |
| 5 | `CCC(=O)N1CSCC1C(=O)Nc1ccccc1-c1cccs1` (centres unmarked) | 24.63% |
| 6 | `Cc1cc(C2CCCN2CCCc2nc3ccccc3o2)on1` (centres unmarked) | 56.86% |
| 7 | `COCC(=O)N(Cc1ccc2[nH]ccc2c1)C1CC1` | 26.94% |
| 8 | `CC(C)n1cc(CN(Cc2ccc(F)cc2)CC2CCCO2)cn1` (centres unmarked) | -19.72% |
| 9 | `CN(Cc1cc2cc(F)ccc2[nH]1)C(=O)C1CC(=O)N(C2CCCC2)C1` (centres unmarked) | 65.9% |
| 10 | `CC(C)CN1CC(O)CN(S(=O)(=O)c2ccc(F)cc2)CC1=O` (centres unmarked) | 7.392% |
| 11 | `O=C(c1ccccn1)N1CCN(c2cnnc(N3CCCC3)c2)CC1` | 20.41% |
| 12 | `COC(=O)CN(C(=O)c1ccc(-n2ccnc2)cc1)C1CC1` | 20.07% |
| 13 | `CCc1cc(=O)n(CC(=O)NCC2CCCO2)c(-c2cccc(F)c2)n1` (centres unmarked) | 19.99% |
| 14 | `CSc1ccc(CN(C)Cc2noc(C(C)(C)C)n2)cc1` | 7.476% |
| 15 | `O=C1C(Nc2nccn3cnnc23)CCN1c1cccc(Cl)c1` (centres unmarked) | -12% |
| 16 | `COC(=O)c1ccc(NC(C)c2ccc3c(c2)CC(=O)N3)nn1` (centres unmarked) | -3.761% |
| 17 | `COc1cccc(-c2nc(C)c(C(=O)N[C@@H](CC(C)C)C(=O)O)s2)c1` | 33.3% |
| 18 | `CC(C)c1nnc2n1CCN(C(=O)c1cc3cc(F)ccc3[nH]1)C2` | -46.52% |
| 19 | `Cc1nc(O)cc([C@@H]2CN(S(=O)(=O)N(C)C)C[C@H]2c2ccccc2F)n1` | 19.13% |
| 20 | `CCC(Nc1nc(C2CCCC2)nc2c1cnn2C)c1ccncc1` (centres unmarked) | 7.371% |
| 21 | `CC(C)c1ncc2c(n1)CN(CC(=O)Nc1ccncc1)CC2` | -3.961% |
| 22 | `Cc1n[nH]c(C)c1CCC(=O)NCC1(O)CCN(c2ccccn2)C1` (centres unmarked) | -28.89% |
| 23 | `COc1ccc(C(C)NCc2c[nH]nc2C)cc1OC.Cl` (centres unmarked) | 28.5% |
| 24 | `CC(Cn1cccn1)NCCS(=O)(=O)c1ccccc1` (centres unmarked) | 33.61% |
| 25 | `Cc1nccn1CCC1CCN(c2ncccn2)CC1` | 6.918% |
| 26 | `COc1ccc(-n2ccc(CNCc3cccc(OC)c3)n2)cc1` | 3.363% |
| 27 | `CCCc1n[nH]c(C2CN(C(=O)c3cncnc3C)CCO2)n1` (centres unmarked) | -40.54% |
| 28 | `Cc1oc(NC(=O)C(C)N2CCN(C(C)(C)CO)CC2)c(C#N)c1C` (centres unmarked) | -36.4% |
| 29 | `Cc1ccc(C(=O)N(C)Cc2ccc(Br)o2)c(=O)[nH]1` | 1.262% |
| 30 | `Cn1cc(C2CCCN2C(=O)c2cnc(-c3cccs3)s2)cn1` (centres unmarked) | -20.05% |
| 31 | `Cn1cc(CC2CC(=O)N(Cc3ccc(OC(F)F)cc3)C2=O)cn1` (centres unmarked) | 9.602% |
| 32 | `COc1ccc(C)nc1NC(=O)CCc1c(C)nn(C)c1C` | -33.82% |
| 33 | `O=C(c1ccncn1)N1CCC[C@]2(C[C@@H](OCc3ccccn3)CO2)C1` | -9.274% |
| 34 | `O=C(c1cncc2ccccc12)N1CCC[C@@H]1CO` | -42.65% |
| 35 | `COc1ccc2c(O)c(NC(=O)NCC3CC3)cnc2c1` | 14.81% |
| 36 | `CCN1CCCN(S(=O)(=O)c2cc3ccccc3o2)CC1` | 20.2% |
| 37 | `CCN(Cc1cc(Cl)ccc1OC)Cc1nccn1C` | 24.37% |
| 38 | `Cc1cnc2c(c1NCc1ccccn1)c(=O)n(C)c(=O)n2C` | -11.92% |
| 39 | `O=C(CO)N1CCCn2nnc(Cn3cccn3)c2C1` | 0.4751% |
| 40 | `COCC(NC(=O)c1cn2ccsc2n1)c1ccnn1C` (centres unmarked) | -41.43% |
| 41 | `CCOCCCC(=O)NCC(c1ccccc1)N1CCc2sccc2C1` (centres unmarked) | -16.01% |
| 42 | `Cc1cccc(NC2CCN(C(=O)Nc3cc(F)ccc3F)CC2)n1` | 0.502% |
| 43 | `CC1(C)CN=C(N2CCN(CC3CCCO3)CC2)S1` (centres unmarked) | 14.58% |
| 44 | `CCC(SC)C(=O)N1CCC(n2cccn2)CC1` (centres unmarked) | -2.468% |
| 45 | `CO[C@@H]1CCN(c2ncccn2)[C@H]1Cc1ccccc1` | 17.8% |
| 46 | `CC(C)(CNc1cccc(Cl)c1)NC(=O)C1CCCN(CC(N)=O)C1` (centres unmarked) | -4.807% |
| 47 | `CS(=O)(=O)NCCCN1CCCCC1c1cc2ccccc2[nH]1` (centres unmarked) | 27.46% |

6 of the entries, repeated:

compound,percent effect
CSc1ccc(CN(C)Cc2noc(C(C)(C)C)n2)cc1,7.476%
COCC(=O)N(Cc1ccc2[nH]ccc2c1)C1CC1,26.94%
CC1(C)CN=C(N2CCN(CC3CCCO3)CC2)S1 (centres unmarked),14.58%
CN1C(=O)CCc2cc(NC(=O)C3CC3)ccc21,-28.98%
CCCc1n[nH]c(C2CN(C(=O)c3cncnc3C)CCO2)n1 (centres unmarked),-40.54%
CC(C)c1nnc2n1CCN(C(=O)c1cc3cc(F)ccc3[nH]1)C2,-46.52%